Assay results published in PMC6559791.
Results are given in words; binding and its absence hold for the method and conditions named. In cells and extracts the contact can be indirect. Binding calls can cover weak binding; strength is not graded here. Tags and fused reporters may be left off the sequences shown.

Target: DmBld10-GFP-FLAG-6xHis (Drosophila melanogaster)
Test: co-IP; S. pombe cell extracts (20 mM Hepes-NaOH pH 7.5, 50 mM KOAc, 200 mM NaCl, 1 mM EDTA, 0.2% Triton X-100); GFP/YFP-tagged protein precipitated with rabbit anti-GFP on Dynabeads Protein A, 3 h at 4°C; western blot

B1: Pcp1-HA (protein, UniProt Q92351 1-1208)
chain: MSERDFNTQSPKFKDENANSVISQSDFLGKSLKNNNDDYSDFRGSYLNDKSSFQTPLRNGSYQPKGSLEFTPLLQSSNKNSDKYNGSLGDKGSFDPNSYGLSAISKQATQEALSISQGNDSYDVSKLTDLSKNSEIDHTDGELPANAALTLREQEKVLEKVSRENFGLRIKIVCLEKRLESMAPEQIKEAVKDNVELHAERANLQLQLKRTESLLQKSEDKNFKLEEKVDYLSKVNDVEQSQNVKVFTERIRFLENALEKVQREKDSLSTEMEEDKSNKEVDYEYEIRQLQNRLDELSEELDVAQDLLTEKEDEIATLKRQIEEKENSSSAFENEENSSYVHLQEDYAILQAKCDEFADRIQVLTADLEKEKENQIMHESEASIGLTDSMQVHTLQEQLHKANEEIEFLHDQISRMNEEGKNFEDIMLQFRSLEEERDVLESKLQTLEDDNNSLRLMTSSLGNQIESLRTQNREIDEEKNHLRLLASKNSDKALAETNIRLQEVTKELETLRMKNSNDLNEIHDLREENEGLTLKIDSITKEKDRLINELEQRIKSYEVNVSELNGTIDEYRNKLKDKEETYNEVMNAFQYKDNDLRRFHESINKLQDREKELTSNLEKKNLVISSLRETVAMLEKERESIKKYLSGNAKDLDNTNLMEILNDKISVLQRQLTDVKDELDVSEEEREEAIVAGQKLSASFELMSNEKQALELKYSSLKNELINAQNLLDRREEELSELSKKLFEERKIRSGSNDDIEKNKEINVLNSELADKLAQIRHLESDKMELDKLVHHLNRGIEEANIEENAVKKRLCLLMGCDYSSVSILQIVSQIEHFVNQQIQTIRSLKQELRHDFVQFSGKKEQELSRSFEKFGLGTETKHDILAQRNRNVSEKMNDLENAAQKFFSSPDRKNGYLYPSEHTSKIEYLEKTIEDLKLALQDELKNRNLLMDDISSYNKQTTKLQEKIKWLERERSILIDELESYRSNQFNYQNNLVQDKNELEERLKEIQKELEVYNNHFMKQAELMTSNVTDESQLMLKTLREALQSKTNNIDHLSTILERNRKEYKSLLDDYNQLRARYKNLQSNTPQSTQSGQYESEIKGLSKLTKYLQSKCRREHSLRLDLAFSKKFILMQLTGYETCNKINLRMLQKIGISPDPDLSKKHIKLKSLIIVVCSIERMKRMKNEWLKQAQLKQSLQRAAAKAKTANY
B1 was tested, and the binding was “binds”.
